This passage reports binding results from publication PMC12624140, “A conserved chronobiological complex times C. elegans development” (The EMBO Journal, 2025).

Results are given in words; binding and its absence hold for the method and conditions named. In cells and extracts the contact can be indirect. Some results given as binding are weak or reduced against the parent protein; the word gives no strength. Tags and fused reporters may be left off the sequences shown.

For the experiment, the target named is T1, 3xFLAG::HA::KIN-20 (endogenously tagged, kin-20(xe328[3xflag::ha::kin-20])) (C. elegans (endogenous in animals)) (UniProt Q20471).
T1 sequence: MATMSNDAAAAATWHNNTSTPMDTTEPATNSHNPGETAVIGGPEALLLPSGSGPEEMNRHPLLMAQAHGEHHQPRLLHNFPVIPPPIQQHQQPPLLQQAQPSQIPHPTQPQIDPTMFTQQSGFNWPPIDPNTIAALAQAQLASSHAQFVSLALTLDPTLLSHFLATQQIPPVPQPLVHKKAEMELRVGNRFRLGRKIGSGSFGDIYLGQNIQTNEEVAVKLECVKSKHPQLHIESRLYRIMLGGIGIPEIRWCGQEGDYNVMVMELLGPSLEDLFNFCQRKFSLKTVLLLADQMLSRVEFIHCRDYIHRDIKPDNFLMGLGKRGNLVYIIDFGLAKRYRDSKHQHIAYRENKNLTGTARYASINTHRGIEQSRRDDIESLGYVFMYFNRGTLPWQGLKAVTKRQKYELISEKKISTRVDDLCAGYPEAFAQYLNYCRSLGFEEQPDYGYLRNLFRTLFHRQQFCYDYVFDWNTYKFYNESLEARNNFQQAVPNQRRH
Put plainly: co-IP; anti-HA magnetic beads, extracts of synchronized 3xflag::lin-42; 3xflag::ha::kin-20 animals (32 h at 25 °C); blot probed with anti-FLAG.

B1: 3xFLAG::LIN-42 (endogenously tagged, lin-42(xe321[3xflag::lin-42])) (protein, UniProt Q65ZG8 1-597)
chain: MEPAGHSSATHNIVVPNANPTQPQPLAPAMREEGATLSPPNTWSSSSVEFLDDADDNRLLFTCTFTLPHGTVLSSATYADGFHEQYLTIGDNFLARLEPKGQSFILSAAAASVKQRIFARVTMPDGALRACELLCEFETDRAKITVLALRSAFSLQASHVSSNFHVFTFITKHSSTCALTHIDYASIPYLGLLPTDLIGKSLLAFVYSPDVHVVRQAHIDLHNSRGKIVKSIADLRLVAHNGSILRCQTEWSAYVNPWTRKMELVVARHRICSLPIGDSDVISSPPPGIQSNTLPPVMAKTFEDELRTIMNKPVPSTSRHSHHHHHSSLKDQNQGFPANIDLGAYIDKIVEQLVVNSTAQQQQKVAVAAAAAAQAAQAAVVATAQIRKVASAPPTTSTDPPLSYTQINCLENVHRLLKSQSRPESPAKQDEPFDEKKYPPQTPLTREALTLHTKRFEDEYKDTWCRRLKRLSDDVPSSPPAKRTTPIHWTSSSQNHYRTMAPAPPPPPGKNYQITYTPLDDLTDQKSTNTKSDVENVAYPISGSKFSTPMRLSIDGLLPRGATSTGGASPTSGTNSPPVFPKTSSSSSLLMLRDSQN
As for B1, the binding entry is reported as “binds”.
